From US20150203575A1
These are yes or no findings as the source states them, for the method shown. Some entries that bind do so weakly or less than the wild type.

By UniProt entry, the sequences of proteins in these tests, tags left out. Where a name states a change or a piece, a line headed by the entry shows the natural chain unless it says otherwise.
UniProt Q16651: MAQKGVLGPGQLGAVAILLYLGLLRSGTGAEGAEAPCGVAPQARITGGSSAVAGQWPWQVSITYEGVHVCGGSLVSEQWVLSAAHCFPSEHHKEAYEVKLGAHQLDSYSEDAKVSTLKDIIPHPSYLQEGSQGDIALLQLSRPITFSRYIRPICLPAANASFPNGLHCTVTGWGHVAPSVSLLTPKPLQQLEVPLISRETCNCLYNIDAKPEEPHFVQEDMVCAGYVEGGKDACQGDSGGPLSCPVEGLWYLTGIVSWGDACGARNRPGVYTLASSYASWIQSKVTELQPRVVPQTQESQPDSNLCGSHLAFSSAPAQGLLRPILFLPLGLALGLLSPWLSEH
UniProt Q9Y286: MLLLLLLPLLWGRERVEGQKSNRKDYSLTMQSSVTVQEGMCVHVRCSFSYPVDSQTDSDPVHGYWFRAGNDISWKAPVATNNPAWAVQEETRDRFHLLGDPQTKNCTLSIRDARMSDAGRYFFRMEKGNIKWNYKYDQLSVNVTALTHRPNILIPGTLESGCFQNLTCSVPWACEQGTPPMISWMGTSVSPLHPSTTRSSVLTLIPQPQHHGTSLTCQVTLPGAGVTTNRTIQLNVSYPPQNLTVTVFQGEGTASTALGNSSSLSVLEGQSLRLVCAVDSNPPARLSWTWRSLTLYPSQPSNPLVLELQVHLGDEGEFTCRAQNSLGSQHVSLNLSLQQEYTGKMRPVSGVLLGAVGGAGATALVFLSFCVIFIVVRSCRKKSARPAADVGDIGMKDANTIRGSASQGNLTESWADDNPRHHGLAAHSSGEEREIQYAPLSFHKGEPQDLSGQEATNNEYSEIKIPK
UniProt P06734: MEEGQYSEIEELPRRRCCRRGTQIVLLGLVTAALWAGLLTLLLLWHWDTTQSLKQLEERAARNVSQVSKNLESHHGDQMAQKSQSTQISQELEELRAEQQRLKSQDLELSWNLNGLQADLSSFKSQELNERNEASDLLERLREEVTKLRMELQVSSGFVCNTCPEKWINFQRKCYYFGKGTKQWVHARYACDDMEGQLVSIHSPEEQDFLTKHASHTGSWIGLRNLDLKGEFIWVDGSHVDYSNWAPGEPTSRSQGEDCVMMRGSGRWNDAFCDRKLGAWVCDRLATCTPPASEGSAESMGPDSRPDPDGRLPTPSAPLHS
UniProt Q9UKJ1: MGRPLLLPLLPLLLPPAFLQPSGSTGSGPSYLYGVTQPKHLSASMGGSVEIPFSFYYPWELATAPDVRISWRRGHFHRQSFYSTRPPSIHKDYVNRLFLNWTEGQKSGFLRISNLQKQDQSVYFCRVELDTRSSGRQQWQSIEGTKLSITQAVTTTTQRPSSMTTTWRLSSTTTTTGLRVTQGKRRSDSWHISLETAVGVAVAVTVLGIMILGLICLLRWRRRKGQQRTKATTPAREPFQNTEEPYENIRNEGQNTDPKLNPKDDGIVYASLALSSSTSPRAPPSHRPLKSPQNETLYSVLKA
UniProt Q2YFS2: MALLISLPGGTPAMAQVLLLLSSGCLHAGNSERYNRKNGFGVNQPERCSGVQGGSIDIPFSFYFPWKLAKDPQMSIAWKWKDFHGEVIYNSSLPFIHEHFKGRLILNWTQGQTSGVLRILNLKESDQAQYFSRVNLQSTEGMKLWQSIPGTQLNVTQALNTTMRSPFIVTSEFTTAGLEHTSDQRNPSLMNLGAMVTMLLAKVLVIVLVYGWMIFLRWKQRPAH

Columns and labels:
[1] = biological target: PSS8 expressed on cells (human) (UniProt Q16651); experiment: cDNA expression library screen with PILRα-AP supernatant on COS7 transfectants; positive clones further analysed by FACS
[2] = biological target: T1, DAG1 expressed on cells (human) (UniProt Q14118); experiment: as above
T1 sequence: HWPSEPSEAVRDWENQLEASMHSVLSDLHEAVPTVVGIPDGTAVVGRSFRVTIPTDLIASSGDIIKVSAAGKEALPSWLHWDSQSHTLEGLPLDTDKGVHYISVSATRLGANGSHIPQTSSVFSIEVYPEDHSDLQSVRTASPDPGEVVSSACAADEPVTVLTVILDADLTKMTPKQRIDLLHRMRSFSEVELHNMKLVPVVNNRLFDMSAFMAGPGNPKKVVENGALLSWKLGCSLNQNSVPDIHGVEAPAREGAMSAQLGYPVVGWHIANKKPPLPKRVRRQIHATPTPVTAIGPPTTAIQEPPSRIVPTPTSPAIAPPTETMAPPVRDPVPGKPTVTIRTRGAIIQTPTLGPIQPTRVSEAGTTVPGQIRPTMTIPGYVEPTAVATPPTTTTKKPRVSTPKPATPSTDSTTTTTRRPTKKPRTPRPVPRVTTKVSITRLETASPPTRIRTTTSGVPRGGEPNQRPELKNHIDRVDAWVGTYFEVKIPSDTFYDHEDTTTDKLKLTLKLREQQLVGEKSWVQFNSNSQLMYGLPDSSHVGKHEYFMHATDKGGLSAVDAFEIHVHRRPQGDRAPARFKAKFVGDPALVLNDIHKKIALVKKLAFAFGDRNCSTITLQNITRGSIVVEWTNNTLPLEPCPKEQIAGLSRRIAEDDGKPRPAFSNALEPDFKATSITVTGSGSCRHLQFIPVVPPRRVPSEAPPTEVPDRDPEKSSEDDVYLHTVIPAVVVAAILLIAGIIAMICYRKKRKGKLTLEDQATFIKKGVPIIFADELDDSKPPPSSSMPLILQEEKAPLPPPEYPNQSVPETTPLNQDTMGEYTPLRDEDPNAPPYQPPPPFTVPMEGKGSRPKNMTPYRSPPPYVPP

[3] = biological target: T2, SIGLEC7 expressed on cells (human) (UniProt Q9Y286); experiment: as above
T2 sequence: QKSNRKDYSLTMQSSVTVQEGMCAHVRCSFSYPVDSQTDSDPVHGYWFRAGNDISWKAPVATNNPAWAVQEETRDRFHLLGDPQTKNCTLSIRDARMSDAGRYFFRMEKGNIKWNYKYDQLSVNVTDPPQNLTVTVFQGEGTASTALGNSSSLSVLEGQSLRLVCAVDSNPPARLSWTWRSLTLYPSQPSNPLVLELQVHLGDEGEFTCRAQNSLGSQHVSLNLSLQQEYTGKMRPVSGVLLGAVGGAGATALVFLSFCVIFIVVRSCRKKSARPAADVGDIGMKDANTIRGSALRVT

[4] = biological target: FceRII expressed on cells (human) (UniProt P06734); experiment: binding to ligand transfectants (FIG. 9C)
[5] = biological target: FceRII expressed on cells (human) (UniProt P06734); experiment: binding to ligand transfectants (FIG. 8C)

Row | Substance | binding [1] | binding [2] | binding [3] | binding [4] | binding [5]
1 | hPILRα-AP (from UniProt Q9UKJ1 20-196) | binds | binds | binds | – | –
2 | mPILRβ (from UniProt Q2YFS2 29-195) (receptor) | – | – | – | binds | binds
